Laboratory results from patent EP4089103A1 (priority 2021, dated 2022).

Experiment: general procedure: Fmoc solid-phase peptide synthesis; 2-chlorotrityl resin (1.6 mmol g^-1 initial loading); HBTU/HOBt monohydrate/DIPEA; 2-bromo-1-ethyl-pyridinium tetrafluoroborate/DIPEA
Details: for cyclisation yield: cyclisation step; for step yield: late stage modification step

| Substance | cyclisation yield (on linear precursor) [%] | step yield [%] | cyclisation yield [%] |
| --- | --- | --- | --- |
| PEPTIDE1{V.[NMeLeu].I.W.[NMeLys].[Glu(TOTA-(+)JQ1)].[Phe(3R-MeO)]}$PEPTIDE1,PEPTIDE1,1:R1-7:R2$$$V2.0 | 64 | 31 |  |
| PEPTIDE1{V.[NMeLeu].[dehydro-isonorleucine].[Trp(prenyl)].[NMeLys].A.[Phe(3R-MeO)]}$PEPTIDE1,PEPTIDE1,1:R1-7:R2$$$V2.0 |  | 12 | 81 |
| PEPTIDE1{V.[NMeLeu].I.W.[NMeOrn].A.F}$PEPTIDE1,PEPTIDE1,1:R1-7:R2$$$V2.0 |  | 28 | >98 |
| PEPTIDE1{V.[NMeLeu].I.W.[NMeGlu(NHPr)].A.F}$PEPTIDE1,PEPTIDE1,1:R1-7:R2$$$V2.0 |  | 44 |  |
| PEPTIDE1{V.[NMeLeu].I.[Trp(prenyl)].[NMeLys].A.F}$PEPTIDE1,PEPTIDE1,1:R1-7:R2$$$V2.0 |  | 11 | 78 |
| PEPTIDE1{V.[NMeGlu].I.W.[NMeLys].A.[Phe(3R-MeO)]}$PEPTIDE1,PEPTIDE1,1:R1-7:R2$$$V2.0 |  | 21 | 52 |
| PEPTIDE1{V.[NMeLeu].I.[Trp(prenyl)].[NMeLys].A.[Phe(3R-MeO)]}$PEPTIDE1,PEPTIDE1,1:R1-7:R2$$$V2.0 |  | 12 | 65 |
| PEPTIDE1{V.[NMeLeu].I.W.[NMeGlu].A.F}$PEPTIDE1,PEPTIDE1,1:R1-7:R2$$$V2.0 |  | 29 | 52 |
| PEPTIDE1{V.[NMeLeu].I.W.[NMeLys].A.F}$PEPTIDE1,PEPTIDE1,1:R1-7:R2$$$V2.0 |  | 41 | 75 |
| PEPTIDE1{V.[NMeLeu].I.W.[NMe5Hnv].A.F}$PEPTIDE1,PEPTIDE1,1:R1-7:R2$$$V2.0 |  | 35 | 94 |
| PEPTIDE1{V.[NMeLeu].I.W.[NMeLys].[Glu(TOTA-Biotin)].[Phe(3R-MeO)]}$PEPTIDE1,PEPTIDE1,1:R1-7:R2$$$V2.0 |  | 9 | 63 |
| PEPTIDE1{V.[NMeLeu].I.W.[NMeLys].A.[Phe(3R-MeO)]}$PEPTIDE1,PEPTIDE1,1:R1-7:R2$$$V2.0 |  | 16 | 88 |

HELM strings list residues between dots; [ac] is acetyl, [am] amide, other brackets name non-standard units.
